Reference: article PMC7033647

Molecular target: T1, SIAH1 with a C-terminal FLAG epitope tag (UniProt Q8IUQ4)
T1 sequence: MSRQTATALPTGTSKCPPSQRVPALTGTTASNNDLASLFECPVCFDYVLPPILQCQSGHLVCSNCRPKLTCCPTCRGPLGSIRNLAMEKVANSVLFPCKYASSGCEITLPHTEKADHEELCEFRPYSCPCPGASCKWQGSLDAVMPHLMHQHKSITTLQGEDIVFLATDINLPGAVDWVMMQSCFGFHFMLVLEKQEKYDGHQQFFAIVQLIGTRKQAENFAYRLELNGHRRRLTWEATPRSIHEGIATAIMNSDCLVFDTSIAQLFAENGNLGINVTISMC
Test: co-IP; HeLa cells treated with MG132 and co-transfected with SIAH1-FLAG and MyD88-myc; total cell lysates immunoprecipitated with anti-FLAG or an isotype control antibody; western blot for MyD88

With MyD88 with a C-terminal myc epitope the binding was “binds”.

Results are given in words; binding and its absence hold for the method and conditions named. In cells and extracts the contact can be indirect. Binding calls can cover weak binding; strength is not graded here. Where a sequence is shown, tags or fusion partners need not be part of it.
